Results as given in paper PMC4455778.
No constants are given. Whether binding was seen depends on the method and setting.

Assays:
[1] = target: Lig4 BRCT1 domain alone (S. pombe); assay: two-hybrid; Matchmaker system (Clontech), Lig4 and fragments as bait, Xrc4 as prey, AH109 strain; HIS3 and ADE2 reporters assessed on SD/-Ade/-His/-Leu/-Trp
[2] = target: Lig4 BRCT2 domain alone (S. pombe); assay: as above

binding [1]: no binding | binding [2]: no binding
B1: Xrc4 (two-hybrid prey) (protein, UniProt Q92361 1-264)
chain: MKFFLSLKDFKGEKFVLRSELDESSAFLCAISPTCRYVLRDEIPWKRLQRNVTSESLTDELIVDLLCGRSESKHTLQLVVLENLCRIYINYVDPFPLRIAWFELEQQALKDHEHFDVLWECSHSIKDLALASMAQQKNELQKLMAYTEQLQEECKSRERKLIMKFADMIKNARNNEDNEDNHHINYEDESDVGTDEQKQQEGVNSSAVSDTDESAVSDEFMQIKEEFPMKALSASPTADASPESAGEDDSHRRSSHESSETVSE
